{"sequences": {"note": "The chains behind the UniProt entries cited, without tags or fusion partners.", "UniProt Q0JBA9, entry or part of it": "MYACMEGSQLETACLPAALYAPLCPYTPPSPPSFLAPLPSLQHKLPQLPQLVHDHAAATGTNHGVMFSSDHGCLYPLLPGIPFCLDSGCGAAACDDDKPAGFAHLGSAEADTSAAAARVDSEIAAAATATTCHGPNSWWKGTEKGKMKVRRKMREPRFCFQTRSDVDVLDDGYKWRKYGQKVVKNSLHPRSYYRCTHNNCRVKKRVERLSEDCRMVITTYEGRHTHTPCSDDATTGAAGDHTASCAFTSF"}, "source": "paper PMC7819943", "about": "“Rice protein-binding microarrays: a tool to detect cis-acting elements near promoter regions in rice”", "note": "The other results are listed elsewhere or left out.", "data": [{"biological_target": "OsWRKY34 (Oryza sativa, UniProt Q0JBA9 1-250)", "assay": "protein-binding microarray (RPBM); PBS, 2% BSA, 51.3 ng/ul salmon testes DNA, 50 uM zinc acetate, 200 nM TF, 25 C, 1 h; high values mean tight binding", "details": "protein: recombinant; tags: N-terminal polyhistidine and DsRed monomer fusion (pET32a); label: CyDye5-dUTP incorporated in the synthesized complementary strand; 3' TTTTT single-stranded linker to array surface; dsDNA, one strand shown", "in_short": "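A custom Agilent array was converted to double-stranded form by primer extension with Cy5-dUTP and blocked with 2% BSA. Protein at 200 nM in PBS with 2% BSA, salmon testes DNA and 50 µM zinc acetate was applied for 1 h at 25 °C, followed by washing. The proteins were polyhistidine–DsRed N-terminal fusions of transcription factors, expressed in E. coli BL21-CodonPlus and Ni–NTA-purified. The binding signal is per-feature fluorescence intensity (arbitrary units) from an Axon 4000B scanner.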", "values": [{"sequence": "GCACAAAACCCTCGAGCACCGCCCGCCGCTATATAACAACCGGAGTCACCTAGTGCAG", "binding signal": "9960 fluorescence intensity (a.u.)"}, {"sequence": "TTAGTGGTGTTTATTATGTCTATTCGATCAGATGGATGCTCGGAGTCACCTAGTGCAG", "binding signal": "9160 fluorescence intensity (a.u.)"}, {"sequence": "GCAATTTGCCTCTTTGTTCCTCATAGTCCAGACACAATTCCGGAGTCACCTAGTGCAG", "binding signal": "9840 fluorescence intensity (a.u.)"}, {"sequence": "TACAGGCTCTCGGCCCACAAGGCGCGCTCTCTGGATCTTTCGGAGTCACCTAGTGCAG", "binding signal": "8030 fluorescence intensity (a.u.)"}, {"sequence": "GCTGTGCTGTTGCGATGCCGTTTCTGATGATTGCATGCACCGGAGTCACCTAGTGCAG", "binding signal": "8160 fluorescence intensity (a.u.)"}, {"sequence": "AGCACATATTCATCTCACGCTTCCTTCTCACTTCTTGTCCCGGAGTCACCTAGTGCAG", "binding signal": "8740 fluorescence intensity (a.u.)"}, {"sequence": "ATCATTTTCTTGTACTCCATACGTCTCATAATATAATTTTCGGAGTCACCTAGTGCAG", "binding signal": "12400 fluorescence intensity (a.u.)"}, {"sequence": "ATGGCGTTTGGTGGTGGTCGACAATCTTTTCCGGTTTCTACGGAGTCACCTAGTGCAG", "binding signal": "12700 fluorescence intensity (a.u.)"}, {"sequence": "AACGCATCGCCTTCCACGTCACCACGTCACTCCTTGCCCTCGGAGTCACCTAGTGCAG", "binding signal": "8460 fluorescence intensity (a.u.)"}, {"sequence": "ATTTCTACAGTCCACTACCACCAGCACGACGTACTGCACCCGGAGTCACCTAGTGCAG", "binding signal": "8360 fluorescence intensity (a.u.)"}, {"sequence": "GTAGTAGGGGAGGAGTGTATCTAGTAGTATAGGGAGGGAGCGGAGTCACCTAGTGCAG", "binding signal": "13000 fluorescence intensity (a.u.)"}, {"sequence": "CACTTCTTTTCTCTATGGCGGCATCTGAATCTATGTGGATCGGAGTCACCTAGTGCAG", "binding signal": "9450 fluorescence intensity (a.u.)"}, {"sequence": "TTTATTCACTTGCCACATCATTTTTCATCGTAGATGATAGCGGAGTCACCTAGTGCAG", "binding signal": "8192 fluorescence intensity (a.u.)"}, {"sequence": "AATATGTTACACGTTTGTTTTGACACTTTCTCCGGCCTAACGGAGTCACCTAGTGCAG", "binding signal": "12900 fluorescence intensity (a.u.)"}, {"sequence": "TTGGAGTCAATTTCCTTGCAAGCTACTCTTTACGTCGTTACGGAGTCACCTAGTGCAG", "binding signal": "8240 fluorescence intensity (a.u.)"}, {"sequence": "ACAACGTTTACGTTTTTCTTTTGATGGTTTTAATATATGTCGGAGTCACCTAGTGCAG", "binding signal": "10700 fluorescence intensity (a.u.)"}, {"sequence": "TTCCTGAGATCAGGGATGAGTCGTTGACTCGATGTTTTTCCGGAGTCACCTAGTGCAG", "binding signal": "8100 fluorescence intensity (a.u.)"}, {"sequence": "GAGCCGCCCGTCGTCTCTCACACCGCCGCCGCCCAACTCCCGGAGTCACCTAGTGCAG", "binding signal": "9010 fluorescence intensity (a.u.)"}, {"sequence": "GTTCGTTTGTCTCTTCCATTCCTGACGTGGCAAGCCTTCGCGGAGTCACCTAGTGCAG", "binding signal": "9090 fluorescence intensity (a.u.)"}, {"sequence": "CTGACACGGCCCATTTACTAGTCTCCAACCTCGTCGCCGCCGGAGTCACCTAGTGCAG", "binding signal": "9830 fluorescence intensity (a.u.)"}, {"sequence": "TATAAGTCATTTGACTTTTTTCCTAGTCAAGTTTAACCAACGGAGTCACCTAGTGCAG", "binding signal": "9380 fluorescence intensity (a.u.)"}, {"sequence": "TCAAACTTGATGTTATATCTGACTTACGGTCTTTGCTTCTCGGAGTCACCTAGTGCAG", "binding signal": "8710 fluorescence intensity (a.u.)"}, {"sequence": "GTTTTTCCTCTCTGCTTGTAACGCGTGATGTAAAATTTTCCGGAGTCACCTAGTGCAG", "binding signal": "11000 fluorescence intensity (a.u.)"}, {"sequence": "TTAATTGCGCCTCCTCCGCTCGCTCCTCCGCCTCGTCTCGCGGAGTCACCTAGTGCAG", "binding signal": "9680 fluorescence intensity (a.u.)"}, {"sequence": "AGATGACCTCTACTTAATGCTCGGTCGGAATCTTCAACTACGGAGTCACCTAGTGCAG", "binding signal": "9620 fluorescence intensity (a.u.)"}, {"sequence": "CCATCACCCACCGCATCTCCGCTCCTCGACCGCGAGAGAGCGGAGTCACCTAGTGCAG", "binding signal": "8920 fluorescence intensity (a.u.)"}, {"sequence": "GCTCGCCTCGCTTGCAGCTGCACCCAACCCAACCTCCTCGCGGAGTCACCTAGTGCAG", "binding signal": "8500 fluorescence intensity (a.u.)"}, {"sequence": "CCCATATTATTCGTCTCCTTGCTTGCTTCTCTGAATATCACGGAGTCACCTAGTGCAG", "binding signal": "8760 fluorescence intensity (a.u.)"}, {"sequence": "CACTTCACTTCACTTCGCCGTGCTCGCCATCATCGCCGCTCGGAGTCACCTAGTGCAG", "binding signal": "14300 fluorescence intensity (a.u.)"}, {"sequence": "ATTTAAGGTAACTGGTTTCATATTCAAAGTTTGTTTACTACGGAGTCACCTAGTGCAG", "binding signal": "8200 fluorescence intensity (a.u.)"}, {"sequence": "AAGCCGCGTTTTGTTTCTCGCGAAAGTGTTTGTTGATATGCGGAGTCACCTAGTGCAG", "binding signal": "9390 fluorescence intensity (a.u.)"}, {"sequence": "GTCGCGCGCGGCGATGCTCGTCAGCCGGATGCCCCGCCGGCGGAGTCACCTAGTGCAG", "binding signal": "8370 fluorescence intensity (a.u.)"}, {"sequence": "TATGCGATACGATTAACTGGTTCTAGTCCTTGATTTTTCTCGGAGTCACCTAGTGCAG", "binding signal": "8620 fluorescence intensity (a.u.)"}, {"sequence": "TAAGTGCAGTTTTGCACTATTCACGTTCAACGTTTGACCGCGGAGTCACCTAGTGCAG", "binding signal": "8940 fluorescence intensity (a.u.)"}, {"sequence": "TCATCATGTGACCGACCACCGCATCCTCAGTTGACCCAGTCGGAGTCACCTAGTGCAG", "binding signal": "8640 fluorescence intensity (a.u.)"}, {"sequence": "CCCATCGCATCTTTCCCACTCGCCCCACGCCCGCACGTCTCGGAGTCACCTAGTGCAG", "binding signal": "18800 fluorescence intensity (a.u.)"}, {"sequence": "CATGCACTTAGTAATTTCTTGTATATGGTACCAGAATTTCCGGAGTCACCTAGTGCAG", "binding signal": "8200 fluorescence intensity (a.u.)"}, {"sequence": "ATTGGCTGTTTCGTTTGCTATGTCATTGGCTTTCCCGCGCCGGAGTCACCTAGTGCAG", "binding signal": "8650 fluorescence intensity (a.u.)"}, {"sequence": "GATATTGGATCGATCGCTGTACCTAGCGCACAAAAGTTATCGGAGTCACCTAGTGCAG", "binding signal": "8240 fluorescence intensity (a.u.)"}, {"sequence": "CTGCTGCTGCTTCTGCTACTGCACTACTACTACACTCATACGGAGTCACCTAGTGCAG", "binding signal": "8070 fluorescence intensity (a.u.)"}, {"sequence": "TATAATGGATTTTGAGTTTTTCTTGCACCGTTTTACCACTCGGAGTCACCTAGTGCAG", "binding signal": "10600 fluorescence intensity (a.u.)"}, {"sequence": "ACCACTTCATCGCATTGTGCATGCTCCAATGGTACTTCTACGGAGTCACCTAGTGCAG", "binding signal": "11200 fluorescence intensity (a.u.)"}, {"sequence": "CTCCCAATCATCTTTTTCCGTTCCCTACTTCATGTTATTCCGGAGTCACCTAGTGCAG", "binding signal": "10500 fluorescence intensity (a.u.)"}, {"sequence": "CTCGCCGCGCGATTCCGGCCCTACCCTGGCGCCCTGCGCCCGGAGTCACCTAGTGCAG", "binding signal": "9910 fluorescence intensity (a.u.)"}, {"sequence": "TCTTCCCACTCGCATCTCCTCACCTCCTTTCCTTCTTTAACGGAGTCACCTAGTGCAG", "binding signal": "10700 fluorescence intensity (a.u.)"}, {"sequence": "TTTTCTCATTTATTCACTTGTCACATCATTTTTCATACTACGGAGTCACCTAGTGCAG", "binding signal": "9290 fluorescence intensity (a.u.)"}, {"sequence": "CCTTTGAATTTCTCTGTTCTATTTTCCTCGATTTCTTTCTCGGAGTCACCTAGTGCAG", "binding signal": "9670 fluorescence intensity (a.u.)"}, {"sequence": "CCATCAGTTTTGGTTGGTGTTTTTTTTCTTTCTAAATTTCCGGAGTCACCTAGTGCAG", "binding signal": "10500 fluorescence intensity (a.u.)"}, {"sequence": "CTATGTTTTTACTGGATCTTTTTTTTGGTAGTACACGCAACGGAGTCACCTAGTGCAG", "binding signal": "9510 fluorescence intensity (a.u.)"}, {"sequence": "AGCTTCGTCATCGCTCGCCCTGCCCCTGCATATGTAACAGCGGAGTCACCTAGTGCAG", "binding signal": "8192 fluorescence intensity (a.u.)"}, {"sequence": "TGCGCGTGTCGCTGGTTCTTATGATTTATGATCATACTTACGGAGTCACCTAGTGCAG", "binding signal": "9090 fluorescence intensity (a.u.)"}, {"sequence": "CTATAAGGTGGTAGCGCTCTTGTTGTTGCTAGTCCAGTCTCGGAGTCACCTAGTGCAG", "binding signal": "11700 fluorescence intensity (a.u.)"}, {"sequence": "TAGTTGTCAGGTCGCTCCGCTTCATTCTGCTGTGCATTTTCGGAGTCACCTAGTGCAG", "binding signal": "10100 fluorescence intensity (a.u.)"}, {"sequence": "GTGGCGTCCCAATCCAATCCATTCCCAATGCGACTTCTCACGGAGTCACCTAGTGCAG", "binding signal": "9080 fluorescence intensity (a.u.)"}]}]}
